In PubChem BioAssay AID1498 (National Center for Advancing Translational Sciences (NCATS), 2009) one finds ratio activity, RFP activity and AC50 data, which are given here for 37 molecules.

Some of the results follow. Further columns of the screen follow, without active or inactive calls. Most of these compounds were active or inconclusive in the main read-out, so they are no random draw. Words in brackets tell the shape of the fitted curve; partial curves, single points and poor fits give uncertain potencies.

This test can be described thus: Confirmation Concentration-Response Assay for Modulators of Lamin A Splicing. The settings on record: HeLa lamin A splicing GFP/RFP minigene, Acumen, 48 h; for ratio activity: GFP/RFP ratio at top concentration; for ratio activity / RFP activity: at 46.1 µM; for RFP activity: RFP channel at top concentration. Put shortly:
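Splicing correction read as ratio of GFP (500-530 nm) to DsRed2 (575-640 nm) object intensity by Acumen cytometry, after 48 h compound treatment of stable HeLa reporter cells (600/well) in 2% FBS medium.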

The mark [1] stands for this setting: measured here: GFP/RFP ratio splicing readout.
Setting [2] is: measured here: RFP viability/nonspecific counter channel.

Consider `CC1CN(C(=O)N2c3ccccc3Sc3ccccc32)CC(C)O1` (stereo unspecified), for which the ratio activity is -46.3% and the RFP activity was 17.2%. Besides, under setting [1], the concentration at half-maximal activity (AC50) (in general, the concentration giving half of the maximal activity seen) is 12.6 µM [falling, full curve, poor fit].
For the molecule `COc1ccc2nc(SCC(=O)N3CC(=O)Nc4ccccc43)c(C#N)cc2c1`, the ratio activity was -36.5% and the RFP activity is -55%. Besides, the AC50 under setting [1] was 2.24 µM [falling, full curve, poor fit].
Take `COc1ccccc1-c1nnc2sc(-c3ccc(N(C)C)cc3)nn12`: the ratio activity was -23% and the RFP activity is -69.5%. Further, the AC50 under setting [1] is 0.178 µM [falling, full curve, poor fit]. For the same molecule, the AC50 under setting [2] was 3.16 µM [falling, full curve, poor fit].
Consider `Cc1ccccc1C(=O)N1CCN(c2ccc(NC(=O)CSc3ccc(Cl)cc3)cc2)CC1`, for which the ratio activity was -29.8% and the RFP activity is -22.7%. The AC50 under setting [1] is 0.355 µM [falling, full curve, poor fit]. The AC50 under setting [2] is 0.178 µM [falling, full curve, poor fit].
For `Cc1ccc(NS(=O)(=O)c2cc([N+](=O)[O-])ccc2NNC(=S)Nc2cccc(Cl)c2)c(C)c1`, the ratio activity is -41.1% and the RFP activity was -3.54%. The AC50 under setting [1] is 3.98 µM [falling, full curve, poor fit]. Further, the AC50 under setting [2] was 7.94 µM [rising, full curve, poor fit].
`C#CCn1c(S(=O)(=O)Cc2ccc(C)cc2)nc(-c2ccccc2)c1-c1ccccc1`: the ratio activity is -49.4% and the RFP activity was 32.9%. The AC50 under setting [1] is 3.16 µM [falling, full curve]. Further, the concentration at half-maximal activity (AC50) under setting [2] was 12.6 µM [rising, full curve, poor fit].
Take `Cc1noc(C)c1-c1ccc2ncnc(NCc3ccc(F)cc3)c2c1`: the ratio activity is -34.9% and the RFP activity is -32.4%. For the same molecule, under setting [1], the AC50 was 15.8 µM [falling, partial curve, poor fit]. In addition, the half-maximal activity concentration (AC50) under setting [2] was 12.6 µM [falling, single point].
As for `CCOC(=O)Cn1c(-c2nonc2NC(=O)c2ccccc2F)nc2ccccc21`, the ratio activity is -52.8% and the RFP activity was 17.5%. Besides, the AC50 under setting [1] is 0.891 µM [falling, full curve, poor fit]. Further, the AC50 under setting [2] was 2.82 µM [rising, full curve, poor fit].
Turning to `O=C1C=CC(=O)N1CCCCCCN1C(=O)C=CC1=O`, the ratio activity was -74.2% and the RFP activity is -43.1%. For the same molecule, the concentration at half-maximal activity (AC50) under setting [1] was 7.08 µM [falling, full curve, poor fit]. Also, the half-maximal activity concentration (AC50) under setting [2] was 3.16 µM [falling, full curve, poor fit].
On to `O=C(Cn1ncc(Cl)c(Cl)c1=O)N1CCN(S(=O)(=O)c2ccc3ccccc3c2)CC1`, for which the ratio activity is -34.7% and the RFP activity was -23.7%. The AC50 under setting [1] is 39.8 µM [falling, single point]. For the same molecule, the concentration at half-maximal activity (AC50) under setting [2] was 8.91 µM [falling, full curve, poor fit].
`Cc1csc(CNc2ncnc3ccc(-c4c(C)noc4C)cc23)c1`: the ratio activity is -2.44% and the RFP activity was -49.7%. Besides, the AC50 under setting [1] was 2.82 µM [falling, full curve]. For the same molecule, the half-maximal activity concentration (AC50) under setting [2] is 0.251 µM [rising, full curve, poor fit].
For `CC1CCC(NC(=O)c2ccc(/C=C3\Oc4ccccc4N(C)C3=O)cc2)CC1` (stereo unspecified), the ratio activity was found to be 51.8% and the RFP activity was -99.1%. Under setting [1], the AC50 is 25.1 µM [rising, partial curve, poor fit]. For the same molecule, the half-maximal activity concentration (AC50) under setting [2] was 7.94 µM [falling, full curve, poor fit].
With `Oc1cccc2ccc(Nc3ccccn3)nc12`, the ratio activity came to 112% and the RFP activity is -98.4%. For the same molecule, under setting [1], the AC50 was 25.1 µM [rising, partial curve, poor fit]. Also, the AC50 under setting [2] was 2 µM [falling, full curve].
On to `COc1cc([C@H]2c3cc4c(cc3[C@@H](O[C@H]3O[C@H]5CO[C@@H](C)O[C@H]5[C@@H](O)[C@@H]3O)[C@@H]3COC(=O)[C@H]23)OCO4)cc(OC)c1O`, for which the ratio activity was -36.7% and the RFP activity amounted to 15.7%. For the same molecule, the AC50 under setting [1] was 0.178 µM [falling, full curve]. For the same molecule, the half-maximal activity concentration (AC50) under setting [2] is 0.158 µM [rising, full curve, poor fit].
As to `CCCCn1c(SCc2c(C)noc2C)nc2cc(S(N)(=O)=O)ccc21`, the ratio activity was -54.8% and the RFP activity turned out to be 30.1%. Moreover, the AC50 under setting [1] is 5.01 µM [falling, full curve]. For the same molecule, under setting [2], the AC50 was 5.62 µM [rising, partial curve, poor fit].
Regarding `O=C(NCc1ccco1)/C(=C/c1cccc(C(F)(F)F)c1)c1nc2ccccc2[nH]1`, the ratio activity is -36.2% and the RFP activity is -21.7%. Also, the half-maximal activity concentration (AC50) under setting [1] is 12.6 µM [falling, full curve, poor fit]. Moreover, under setting [2], the half-maximal activity concentration (AC50) was 5.01 µM [falling, full curve, poor fit].
Regarding `Cc1cccc(CNc2ncnc3ccc(-c4c(C)noc4C)cc23)c1`, the ratio activity was -39% and the RFP activity came to 30.1%. The AC50 under setting [1] is 3.98 µM [falling, full curve]. Further, under setting [2], the half-maximal activity concentration (AC50) is 15.8 µM [rising, full curve, poor fit].
Turning to `O=S(=O)(CC(CN1CCCC1)N1CCCC1)c1ccc2ccccc2c1` (stereo unspecified), the ratio activity was -39% and the RFP activity is -32.4%. Under setting [1], the AC50 was 1.12 µM [falling, full curve, poor fit]. For the same molecule, the AC50 under setting [2] was 7.08 µM [falling, full curve, poor fit].
Consider `COc1ccc(OC)c(NC(=O)C2CCC(CNc3c(N4CCC(C)CC4)c(=O)c3=O)CC2)c1` (stereo unspecified), for which the ratio activity is -34.3% and the RFP activity was -18.2%. Further, the AC50 under setting [1] is 14.1 µM [falling, full curve, poor fit]. Further, the AC50 under setting [2] was 3.16 µM [falling, full curve, poor fit].
With `Cc1noc(C)c1-c1ccc2ncnc(NCc3ccc(F)c(F)c3)c2c1`, the ratio activity was -17.1% and the RFP activity was -30.4%. In addition, the AC50 under setting [1] is 3.55 µM [falling, full curve]. For the same molecule, the half-maximal activity concentration (AC50) under setting [2] was 0.000447 µM [falling, full curve, poor fit].
For `Cc1noc(C)c1-c1ccc2ncnc(NCc3cccc(C(F)(F)F)c3)c2c1`, the ratio activity stood at 2.28% and the RFP activity was -94.7%. In addition, the half-maximal activity concentration (AC50) under setting [1] was 2.82 µM [falling, full curve, poor fit]. Moreover, under setting [2], the AC50 was 15.8 µM [falling, full curve, poor fit].
Consider `Cc1ccc2nc(NNC(=O)c3ccc(S(=O)(=O)N4CCc5ccccc5C4)cc3)sc2c1`, for which the ratio activity is -31.2% and the RFP activity was determined as 46.5%. The AC50 under setting [1] was 1.41 µM [falling, full curve, poor fit]. In addition, the AC50 under setting [2] is 3.55 µM [rising, full curve, poor fit].
On to `N=c1ccn2c(n1)O[C@@H]1[C@@H](O)[C@H](CO)O[C@H]12`, for which the ratio activity was -36.6% and the RFP activity is 41.7%. Moreover, the half-maximal activity concentration (AC50) under setting [1] was 0.0316 µM [falling, full curve]. Also, the AC50 under setting [2] is 0.398 µM [rising, full curve, poor fit].
As for `O=C(NCc1cccnc1)/C(=C\c1ccc(-c2cccc(Cl)c2)o1)S(=O)(=O)c1ccccc1`, the ratio activity was determined as 6.75% and the RFP activity was -76.7%. Besides, the AC50 under setting [1] was 0.891 µM [falling, full curve, poor fit]. The half-maximal activity concentration (AC50) under setting [2] is 7.94 µM [falling, full curve, poor fit].
As for `CCC(Nc1ncnc2ccc(-c3c(C)noc3C)cc12)c1ccccc1` (stereo unspecified), the ratio activity was -42.2% and the RFP activity is 20.6%. Also, the AC50 under setting [1] is 2.24 µM [falling, full curve]. Moreover, the AC50 under setting [2] was 10 µM [rising, full curve, poor fit].
For `CC(C)(C)c1nc(SCC(=O)Nc2nc3c(s2)CCCC3)c2ccccc2n1`, the ratio activity is -19.7% and the RFP activity was -53.3%. Under setting [1], the concentration at half-maximal activity (AC50) is 1.41 µM [falling, full curve]. Moreover, under setting [2], the AC50 was 2.24 µM [rising, full curve, poor fit].
Take `CSc1nc(N(C)NC(=O)c2ccc(Cl)cc2)c2ccccc2n1`: the ratio activity is -21.5% and the RFP activity was -64%. Also, under setting [1], the half-maximal activity concentration (AC50) is 0.398 µM [falling, full curve, poor fit]. Besides, the AC50 under setting [2] is 31.6 µM [falling, partial curve, poor fit].
For `Cc1noc(C)c1-c1ccc2ncnc(NCc3ccc4c(c3)OCO4)c2c1`, the ratio activity is -31.9% and the RFP activity is 8.77%. In addition, the concentration at half-maximal activity (AC50) under setting [1] is 8.91 µM [falling, partial curve, poor fit]. The AC50 under setting [2] is 4.47 µM [falling, partial curve, poor fit].
Consider `CC1=CC(C)(C)N(S(=O)(=O)c2ccc(C)cc2)c2ccccc21`, for which the ratio activity is -17.4% and the RFP activity was -64.2%. Moreover, under setting [1], the AC50 is 5.62 µM [falling, full curve, poor fit]. Moreover, under setting [2], the AC50 was 8.91 µM [falling, full curve, poor fit].
Turning to `Cn1nnnc1Sc1ncnc2scc(-c3ccccc3)c12`, the ratio activity was -39.7% and the RFP activity was -52.3%. Moreover, the half-maximal activity concentration (AC50) under setting [1] was 2.24 µM [falling, full curve]. The AC50 under setting [2] was 28.2 µM [falling, partial curve, poor fit].
In the case of `Oc1ccc(/C=N/Nc2nccnc2Cl)c(O)c1`, the ratio activity is -31.7% and the RFP activity came to 36.8%. Besides, under setting [1], the AC50 was 2.82 µM [falling, full curve, poor fit]. Also, the AC50 under setting [2] is 5.01 µM [rising, full curve, poor fit].
With `CN(C)CC(C(=O)c1ccccc1)c1ccccc1` (stereo unspecified), the ratio activity was -12.8% and the RFP activity was -90.6%. Besides, under setting [1], the AC50 was 0.501 µM [falling, full curve, poor fit]. Besides, the AC50 under setting [2] was 7.94 µM [falling, full curve, poor fit].
With `Cc1noc(C)c1-c1ccc2ncnc(NCc3cccc(Cl)c3)c2c1`, the ratio activity is -33.9% and the RFP activity was -30.6%. Besides, the AC50 under setting [1] was 8.91 µM [falling, full curve, poor fit]. The half-maximal activity concentration (AC50) under setting [2] was 31.6 µM [falling, single point].
In the case of `CSc1ccc(CNc2ncnc3ccc(-c4c(C)noc4C)cc23)cc1`, the ratio activity is -26.1% and the RFP activity is -34.2%. Besides, the AC50 under setting [1] is 12.6 µM [falling, single point]. For the same molecule, the AC50 under setting [2] is 3.55 µM [falling, full curve, poor fit].
For `Cc1ccccc1S(=O)(=O)Cc1ccc(C(=O)N2CCN(c3cccc(C)c3C)CC2)o1`, the ratio activity was -23.6% and the RFP activity is -52.5%. The AC50 under setting [1] was 0.708 µM [falling, full curve, poor fit]. The half-maximal activity concentration (AC50) under setting [2] was 0.0126 µM [rising, full curve, poor fit].
Take `CN(Cc1cnc2nc(N)nc(N)c2n1)c1ccc(C(=O)N[C@H](CCC(=O)O)C(=O)O)cc1`: the ratio activity is -37.1% and the RFP activity amounted to 32.5%. Further, under setting [1], the AC50 is 0.0562 µM [falling, full curve, poor fit]. For the same molecule, under setting [2], the half-maximal activity concentration (AC50) was 0.00501 µM [rising, full curve, poor fit].
On to `CCOc1ccccc1CNc1ncnc2ccc(-c3c(C)noc3C)cc12`, for which the ratio activity was -26.7% and the RFP activity is -39.2%. In addition, the AC50 under setting [1] was 3.55 µM [falling, full curve, poor fit]. Besides, the AC50 under setting [2] was 35.5 µM [falling, single point].
